Data taken from patent publication US6677431B2, “Design, preparation, and properties of antibacterial β-peptides” (The Trustees of the University of Pennsylvania, priority 1999, dated 2004).
Part of at least one peptide drawing is inferred or uncertain, most often the ends.

system: recA-lux bioluminescence; assay: Inhibition of recA-lux bioluminescence in M9 media; type: cell-based; details: In M9 medium
Procedure: ∇in M9 medium (data from Hamuro et al., ref. 5) # In M9 medium.+Hemolysis experiments were performed by incubating a 0.25% suspension of human RBc's in 10 mM Tris buffer containing […] at pH 7.0 with varying amounts of peptide. The hemolytic dose required to lyse 50% of the RBC's is reported as the HD50.
The biolumenescence data result from test carried out according to U.S. Pat. No. 5,683,868, Highly Sensitive Method For Detecting Environmental Insults, issued Nov. 4, 1997 to LaRossa et al., the entire contents of the disclosure of are hereby incorporated by reference, The tests described in this patent permit antibacterial properties of peptides or any other materials to be assessed. […] Along these lines, FIG. 5 illustrates a relationship between relative light units and minutes of exposure of bacteria to the various materials in the legend. P×B represents polymyxin, a known antibacterial material. In the graph, a decrease in RULs corresponds to a decrease in bacteria. […]

Structure (SMILES) | IC50
CC(C)C[C@@H](CC(=O)O)NC(=O)C[C@H](CCCCN)NC(=O)C[C@@H](NC(=O)C[C@H](CC(C)C)NC(=O)C[C@H](CCCCN)NC(=O)C[C@@H](NC(=O)C[C@H](CC(C)C)NC(=O)C[C@H](CCCCN)NC(=O)C[C@@H](NC(=O)OCC1c2ccccc2-c2ccccc21)C(C)C)C(C)C)C(C)C [Fmoc-(β^3-HVal-β^3-HLys-β^3-HLeu)3-OH, Fmoc-(b^3-HVal-b^3-HLys-b^3-HLeu)3-OH] | 16 µM
CC(C)C[C@H](N)CC(=O)N[C@@H](CCCCN)CC(=O)N[C@H](CC(=O)N[C@H](CC(=O)N[C@@H](CCCCN)CC(=O)N[C@H](CC(=O)N[C@H](CC(=O)N[C@@H](CCCCN)CC(=O)N[C@H](CC(=O)N[C@H](CC(=O)N[C@@H](CCCCN)CC(=O)N[C@H](CC(=O)O)CC(C)C)CC(C)C)CC(C)C)CC(C)C)CC(C)C)CC(C)C)CC(C)C [H-(β^3-HLeu-β^3-HLys-β^3-HLeu)4-OH, H-(b^3-HLeu-b^3-HLys-b^3-HLeu)4-OH] | 64 µM
CC(C)C[C@H](N)CC(=O)N[C@@H](CCCCN)CC(=O)N[C@H](CC(=O)N[C@H](CC(=O)N[C@@H](CCCCN)CC(=O)N[C@H](CC(=O)N[C@H](CC(=O)N[C@@H](CCCCN)CC(=O)N[C@H](CC(=O)N[C@H](CC(=O)N[C@@H](CCCCN)CC(=O)N[C@H](CC(=O)N[C@H](CC(=O)N[C@@H](CCCCN)CC(=O)N[C@H](CC(=O)O)CC(C)C)CC(C)C)CC(C)C)CC(C)C)CC(C)C)CC(C)C)CC(C)C)CC(C)C)CC(C)C [H-(β^3-HLeu-β^3-HLys-β^3-HLeu)5-OH, H-(b^3-HLeu-b^3-HLys-b^3-HLeu)5-OH] | 24 µM
CC(C)C[C@H](N)CC(=O)N[C@@H](CCCCN)CC(=O)N[C@H](CC(=O)N[C@H](CC(=O)N[C@@H](CCCCN)CC(=O)N[C@H](CC(=O)N[C@H](CC(=O)N[C@@H](CCCCN)CC(=O)N[C@H](CC(=O)N[C@H](CC(=O)N[C@@H](CCCCN)CC(=O)N[C@H](CC(=O)N[C@H](CC(=O)N[C@@H](CCCCN)CC(=O)N[C@H](CC(=O)N[C@H](CC(=O)N[C@@H](CCCCN)CC(=O)N[C@H](CC(=O)O)CC(C)C)CC(C)C)CC(C)C)CC(C)C)CC(C)C)CC(C)C)CC(C)C)CC(C)C)CC(C)C)CC(C)C)CC(C)C [H-(β^3-HLeu-β^3-HLys-β^3-HLeu)6-OH, H-(b^3-HLeu-b^3-HLys-b^3-HLeu)6-OH] | 2 µM
